In publication PMC10502815:
These are yes or no findings as the source states them, for the method shown. In cells and extracts the contact can be indirect. Some binding calls cover weakened binding; strength is not graded here. For some assays here: Sequences can lack the tags named with a protein.

Chains of the proteins cited; added tags and fusions are not shown. Lines headed by an entry give the natural chain unless they say otherwise; changes in a name come on top.
UniProt Q07817: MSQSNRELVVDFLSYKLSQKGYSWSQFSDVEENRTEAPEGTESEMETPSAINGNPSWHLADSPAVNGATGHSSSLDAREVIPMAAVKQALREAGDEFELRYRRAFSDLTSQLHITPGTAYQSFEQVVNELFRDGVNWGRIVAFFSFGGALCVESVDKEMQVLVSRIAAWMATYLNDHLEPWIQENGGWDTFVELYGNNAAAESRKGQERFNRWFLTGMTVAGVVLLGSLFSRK

T1: ubiquitin specific peptidase 13 (USP13), endogenous (human (endogenous in HK-2)) (UniProt Q92995)
T1 sequence: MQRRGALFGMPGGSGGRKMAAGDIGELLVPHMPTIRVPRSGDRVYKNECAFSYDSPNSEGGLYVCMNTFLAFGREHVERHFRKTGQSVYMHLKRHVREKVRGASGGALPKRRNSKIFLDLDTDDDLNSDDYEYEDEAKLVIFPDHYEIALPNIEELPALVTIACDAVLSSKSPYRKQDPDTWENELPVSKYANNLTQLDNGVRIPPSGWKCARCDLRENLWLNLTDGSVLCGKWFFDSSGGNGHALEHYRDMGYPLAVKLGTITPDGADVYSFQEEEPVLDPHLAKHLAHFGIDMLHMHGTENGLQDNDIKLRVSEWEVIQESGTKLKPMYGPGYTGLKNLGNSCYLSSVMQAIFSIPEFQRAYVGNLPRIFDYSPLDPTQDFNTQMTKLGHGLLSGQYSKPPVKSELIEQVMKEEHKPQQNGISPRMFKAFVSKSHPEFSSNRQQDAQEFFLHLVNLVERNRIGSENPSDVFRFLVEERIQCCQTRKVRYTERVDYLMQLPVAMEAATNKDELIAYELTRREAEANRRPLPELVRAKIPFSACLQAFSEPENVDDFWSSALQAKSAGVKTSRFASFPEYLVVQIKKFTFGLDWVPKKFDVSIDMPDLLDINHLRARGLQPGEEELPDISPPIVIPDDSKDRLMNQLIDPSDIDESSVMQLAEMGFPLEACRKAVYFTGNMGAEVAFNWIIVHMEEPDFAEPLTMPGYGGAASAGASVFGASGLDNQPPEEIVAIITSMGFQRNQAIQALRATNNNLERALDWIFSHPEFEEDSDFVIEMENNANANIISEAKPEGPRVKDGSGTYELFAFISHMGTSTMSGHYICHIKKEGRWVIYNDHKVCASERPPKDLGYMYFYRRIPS


Columns and labels:
[1] = biological target: T1, ubiquitin specific peptidase 13 (USP13), endogenous (human (endogenous in HK-2)); test: co-IP; endogenous proteins of HK-2 cells; IP buffer pH 7.5 (50 mM Tris-base, 150 mM NaCl, 2 mM EGTA, 25 mM NaF, 25 mM β-sodium glycerophosphate); protein A/G Plus-agarose and primary antibody, IgG as negative control; Western blot
[2] = biological target: BCL2 like 1 (Bcl-XL), Flag-tagged (UniProt Q07817); test: co-IP; HEK293T co-transfected with USP13-Myc and Bcl-XL-Flag, 10 µM MG-132 for 12 h; lysis in 1% NP-40 buffer pH 8.0 (25 mM Tris-base, 150 mM NaCl, 10% glycerol); 500 µg lysate with anti-Flag beads at 4 °C overnight; anti-Myc blot

binding [1]	binding [2]	Molecule
binds		BCL2 like 1 (Bcl-XL), endogenous (from UniProt Q07817-1 1-233)
	binds	ubiquitin specific peptidase 13 (USP13), Myc-tagged (enzyme, UniProt Q92995 1-863) MQRRGALFGMPGGSGGRKMAAGDIGELLVPHMPTIRVPRSGDRVYKNECAFSYDSPNSEGGLYVCMNTFLAFGREHVERHFRKTGQSVYMHLKRHVREKVRGASGGALPKRRNSKIFLDLDTDDDLNSDDYEYEDEAKLVIFPDHYEIALPNIEELPALVTIACDAVLSSKSPYRKQDPDTWENELPVSKYANNLTQLDNGVRIPPSGWKCARCDLRENLWLNLTDGSVLCGKWFFDSSGGNGHALEHYRDMGYPLAVKLGTITPDGADVYSFQEEEPVLDPHLAKHLAHFGIDMLHMHGTENGLQDNDIKLRVSEWEVIQESGTKLKPMYGPGYTGLKNLGNSCYLSSVMQAIFSIPEFQRAYVGNLPRIFDYSPLDPTQDFNTQMTKLGHGLLSGQYSKPPVKSELIEQVMKEEHKPQQNGISPRMFKAFVSKSHPEFSSNRQQDAQEFFLHLVNLVERNRIGSENPSDVFRFLVEERIQCCQTRKVRYTERVDYLMQLPVAMEAATNKDELIAYELTRREAEANRRPLPELVRAKIPFSACLQAFSEPENVDDFWSSALQAKSAGVKTSRFASFPEYLVVQIKKFTFGLDWVPKKFDVSIDMPDLLDINHLRARGLQPGEEELPDISPPIVIPDDSKDRLMNQLIDPSDIDESSVMQLAEMGFPLEACRKAVYFTGNMGAEVAFNWIIVHMEEPDFAEPLTMPGYGGAASAGASVFGASGLDNQPPEEIVAIITSMGFQRNQAIQALRATNNNLERALDWIFSHPEFEEDSDFVIEMENNANANIISEAKPEGPRVKDGSGTYELFAFISHMGTSTMSGHYICHIKKEGRWVIYNDHKVCASERPPKDLGYMYFYRRIPS
